Laboratory results: doi:10.1101/2025.05.08.652833
Read-outs that look alike come from different tables or passages of the source. No constants are given. Whether binding was seen depends on the method and setting. Binding seen in cells or lysates may run through a third protein. Here binding means that the protein was enriched with, or labelled near, the bait; the list need not be complete. Where a sequence is shown, tags or fusion partners need not be part of it. Each block holds one molecule with its values, some of them ahead of it.

Amino acid sequences for entries named in this document (tags omitted). A change or cut given only in a name is not applied to a line headed by its entry. Residues count along the entry.
UniProt P0A431, residues 27-272: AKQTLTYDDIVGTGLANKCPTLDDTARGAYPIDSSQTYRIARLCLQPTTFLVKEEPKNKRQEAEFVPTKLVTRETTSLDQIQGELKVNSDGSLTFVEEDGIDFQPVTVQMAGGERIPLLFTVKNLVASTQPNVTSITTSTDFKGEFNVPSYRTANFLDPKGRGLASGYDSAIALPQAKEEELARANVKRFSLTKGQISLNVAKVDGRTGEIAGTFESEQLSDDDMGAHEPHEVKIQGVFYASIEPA
UniProt Q8DIP0: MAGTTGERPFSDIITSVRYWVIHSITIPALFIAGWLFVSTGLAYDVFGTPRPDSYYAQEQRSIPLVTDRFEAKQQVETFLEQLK
UniProt Q8DJ43: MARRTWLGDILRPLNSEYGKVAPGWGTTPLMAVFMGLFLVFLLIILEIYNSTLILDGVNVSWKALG
UniProt Q8DIQ1: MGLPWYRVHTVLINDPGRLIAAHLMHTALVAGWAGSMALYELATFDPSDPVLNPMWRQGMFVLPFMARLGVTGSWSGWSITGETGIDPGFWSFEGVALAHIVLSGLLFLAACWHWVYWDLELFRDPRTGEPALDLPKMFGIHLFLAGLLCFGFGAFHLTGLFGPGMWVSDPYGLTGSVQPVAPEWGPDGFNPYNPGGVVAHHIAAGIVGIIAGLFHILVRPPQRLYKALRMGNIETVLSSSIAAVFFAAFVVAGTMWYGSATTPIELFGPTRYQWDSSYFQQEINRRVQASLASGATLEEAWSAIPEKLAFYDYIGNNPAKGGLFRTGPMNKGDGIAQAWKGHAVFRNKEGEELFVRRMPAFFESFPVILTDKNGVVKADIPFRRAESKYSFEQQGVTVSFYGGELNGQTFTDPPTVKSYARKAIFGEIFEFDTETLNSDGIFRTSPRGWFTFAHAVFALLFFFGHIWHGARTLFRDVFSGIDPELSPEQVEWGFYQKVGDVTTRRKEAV
UniProt Q9F1L5: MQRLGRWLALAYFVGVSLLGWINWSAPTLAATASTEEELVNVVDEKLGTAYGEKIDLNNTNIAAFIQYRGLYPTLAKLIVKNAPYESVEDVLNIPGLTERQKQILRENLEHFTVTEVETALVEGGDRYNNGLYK

Columns and labels:
Assay in all cases: affinity purification with mass spectrometry
[1] = biological target: T1, Twin-Strep-tagged Psb27 (Thermosynechococcus vestitus BP-1) (UniProt Q8DG60)
T1 sequence (chain, lipid-modified N-terminal cysteine (Cmod)): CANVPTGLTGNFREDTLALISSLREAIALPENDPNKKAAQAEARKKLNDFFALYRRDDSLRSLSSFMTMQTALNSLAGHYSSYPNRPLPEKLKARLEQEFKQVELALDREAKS

[2] = biological target: T1, Twin-Strep-tagged Psb27 (Thermosynechococcus vestitus BP-1); remark: listed apart in the source
[3] = biological target: T2, Twin-Strep-tagged Psb27 (Thermosynechococcus vestitus BP-1), Q8DG60; conditions: remark: other sources report otherwise
T2 chain: T1 sequence (chain, lipid-modified N-terminal cysteine (Cmod))

Molecule: D2 (PsbD) (from UniProt Q8CM25 1-352)
- binding [1]: binds

Molecule: PsbO (from UniProt P0A431 27-272)
- binding [1]: binds

Molecule: PsbE (from UniProt Q8DIP0 1-84)
- binding [1]: binds

Molecule: PsbH (from UniProt Q8DJ43 1-66)
- binding [1]: binds

B1: PsbZ (protein, UniProt Q8DHJ2 1-62)
chain: MTILFQLALAALVILSFVMVIGVPVAYASPQDWDRSKQLIFLGSGLWIALVLVVGVLNFFVV
- binding [2]: binds

B3: CyanoP, Q8DH84 20-183 (protein)
chain: CSATSGLQAYVDSYDGYEFLYPRGWVQVQVEDPVDVVFHDIIETTENVSVVVNTVASTKSLEELGSPEEVGDRLLRNIIAPSESGRSSALIAATSQKADDKTYYILEYAVTLPGDGNTAQQRHNLSSIAVSRGKVYTLSVSAPEERWPKVEDQFKTIVSSFTVY
modifications: here or on the partner: lipid-modified N-terminal cysteine (Cmod)
- binding [3]: binds

B5: PsbV (protein, UniProt P0A386 27-163)
chain: AELTPEVLTVPLNSEGKTITLTEKQYLEGKRLFQYACASCHVGGITKTNPSLDLRTETLALATPPRDNIEGLVDYMKNPTTYDGEQEIAEVHPSLRSADIFPKMRNLTEKDLVAIAGHILVEPKILGDKWGGGKVYY
- binding [2]: binds

B6: Psb34 (protein, UniProt Q8DMP8 1-56)
chain: MRYTTDEGGRLNNFAIEPKVYQAQPWTPQQKVRAALLVGGGLLLVAGLVAIAVGVS
- binding [2]: binds

Now from value to molecule:

- binding [1]: binds
Molecule: FtsH

- binding [1]: binds
Molecule: CP47 (PsbB) (from UniProt Q8DIQ1 1-510)

- binding [1]: binds
Molecule: PsbU (from UniProt Q9F1L5)

- binding [1]: binds
Molecule: CP43 (PsbC) (from UniProt Q8DIF8 1-461)

- binding [2]: binds
B2: CyanoQ (protein, UniProt Q8DHA2 24-152)
chain: CGGPSATTPPPPTYSELQITRIQDYLRDIEKNAERFADLEVSVAKGDWQEARNIMRGPLGEMLMDMRALNRNLLAKDQPTPTALTRALTDDFLKIDQGADLDSVTVAQEGFREAEADFKAYLNSLPELS

- binding [2]: binds
B4: Psb28 (protein, UniProt Q8DLJ8 1-116)
chain: MGAMAEIQFIRGINEEVVPDVRLTRARDGSSGQAMFYFDNPKIVQEGNLEVTGMYMVDEEGEIVTRDVNAKFINGQPVAIEATYTMRSPQEWDRFIRFMDRYAASHGLGFQKSENS
